Experimental data taken from the supplement of paper PMC9135407.
Where “and” joins values, the source holds several entries; their conditions need not be identical. Equal entries are not always repeated. Structures can show the parent of a compound that is named as a salt. ± gives the standard deviation of the averaged measurements. This is one part of the list. Part of the spread comes from offsets between plates or batches.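 Culture-activated primary human stellate myofibroblasts, where regained lipid droplets signal inactivation. Value: share of Hoechst-counted cells above a per-plate Bodipy cutoff, in duplicate wells, with DMSO negative and nortriptyline positive controls on each plate. Hits: a control-normalized score above the plate's top-tenth-percentile nortriptyline wells, or one of a plate's three best wells. Final well concentrations are not given.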

Tested on: primary human hepatic stellate cells (donor 1)
Assay: percent Bodipy-positive cells; higher = more lipid droplet accumulation
Conditions: 48 h
[1] = library stock concentration: 80 uM
[2] = library stock concentration: 400 uM
[3] = library stock concentration: 2 mM
[4] = library stock concentration: 3.33 mM
[5] = library stock concentration: 10 mM
[6] = library stock concentration: 1 mM
[7] = library stock concentration: 4.4 mM

## CC1=C(C(=O)Nc2cc3cn[nH]c3cc2F)C(c2ccc(C(F)(F)F)cc2)CC(=O)N1 (centres undefined)
[1]
  percent Bodipy-positive cells: 5.7 ± 3.2%
[2]
  percent Bodipy-positive cells: 7.03% and 16.2%
[3]
  percent Bodipy-positive cells: 6.64% and 15.2%
[4]
  percent Bodipy-positive cells: 5.1 ± 1.7%

## CNC(=O)c1ccccc1Nc1nc(Nc2ccc(N3CCOCC3)cc2OC)ncc1Cl
[1]
  percent Bodipy-positive cells: 10.4 ± 2.6%
[2]
  percent Bodipy-positive cells: 7.59 ± 1.7%
[3]
  percent Bodipy-positive cells: 5.99 ± 3.4%
[4]
  percent Bodipy-positive cells: 6.16 ± 2.5%
[5]
  percent Bodipy-positive cells: 17.2% and 11.7%

## CCCCC[C@H](O)/C=C/[C@@H]1[C@@H](C/C=C\CCCC(=O)OCC(O)CO)[C@@H](O)C[C@H]1O (stereo partly drawn) [Prostaglandin F2.alpha.-1-glyceryl ester]
[6]
  percent Bodipy-positive cells: 12.8 ± 6.8%

## C[C@@H](N)C1CCC(C(=O)Nc2ccncc2)CC1 (some centres undefined)
[4]
  percent Bodipy-positive cells: 11.9 ± 5.2%

## COc1cc(/C=C/c2ccc(O)cc2)cc(OC)c1
[5]
  percent Bodipy-positive cells: 11.5 ± 1.2%

## CCOC(=O)c1ncn2c1CN(C)C(=O)c1cc(F)ccc1-2 [Flumazenil]
[4]
  percent Bodipy-positive cells: 32.9 ± 21%
Library stock concentration: 6.6 mM
  percent Bodipy-positive cells: 6.66 ± 0.75%

## CCOC(=O)c1ncn2c1CN(C)C(=O)c1cc(F)ccc1-2
[5]
  percent Bodipy-positive cells: 9.51 ± 2.7%

## O=NN(CCCl)C(=O)NCCCl [Carmustine]
Library stock concentration: 9.3 mM
  percent Bodipy-positive cells: 9.36 ± 2.6%
[5]
  percent Bodipy-positive cells: 35.7 ± 14%

## O=C(O)C(Cc1c[nH]c2ccccc12)N1C(=O)c2ccccc2C1=O (centres undefined)
[1]
  percent Bodipy-positive cells: 36.9 ± 0.47%
[2]
  percent Bodipy-positive cells: 44.4 ± 13%
[3]
  percent Bodipy-positive cells: 44.1 ± 3.4%
[4]
  percent Bodipy-positive cells: 8.54 ± 0.47%

## CCOc1cc(CC(=O)N[C@@H](CC(C)C)c2ccccc2N2CCCCC2)ccc1C(=O)O [Repaglinide]
  percent Bodipy-positive cells: 5.39 ± 1.6%
[4]
  percent Bodipy-positive cells: 11.59 ± 0.098%
[7]
  percent Bodipy-positive cells: 0.598 ± 0.23%
[5]
  percent Bodipy-positive cells: 19.6% and 6.06%

## CCOc1cc(CC(=O)N[C@@H](CC(C)C)c2ccccc2N2CCCCC2)ccc1C(=O)O
[5]
  percent Bodipy-positive cells: 10.2 ± 5.5%

## C[C@@H](Oc1cc(-n2cnc3ccc(CN4CCN(C)CC4)cc32)sc1C(N)=O)c1ccccc1C(F)(F)F
[4]
  percent Bodipy-positive cells: 95.6 ± 2.2%

## CCOC(=O)C1=C(C)NC(C)=C(C(=O)OCC)C1c1ccccc1/C=C/C(=O)OC(C)(C)C [Lacidipine]
[4]
  percent Bodipy-positive cells: 31.7 ± 4.7%
[7]
  percent Bodipy-positive cells: 30.62 ± 0.14%
[5]
  percent Bodipy-positive cells: 69.4 ± 5.3%

## CCOC(=O)C1=C(C)NC(C)=C(C(=O)OCC)C1c1ccccc1/C=C/C(=O)OC(C)(C)C
[5]
  percent Bodipy-positive cells: 47.9 ± 4.3%

## Cn1c(=O)n(-c2ccc(C(C)(C)C#N)cc2)c2c3cc(-c4cnc5ccccc5c4)ccc3ncc21
[1]
  percent Bodipy-positive cells: 4.79 ± 1.1%
[2]
  percent Bodipy-positive cells: 5.7 ± 1.6%
[3]
  percent Bodipy-positive cells: 8.14 ± 3.5%
[5]
  percent Bodipy-positive cells: 13.6 ± 2.8%

## CCCCC(C)(O)CC=CC1C(O)CC(=O)C1CCCCCCC(=O)OC (centres undefined) [8-iso Misoprostol]
[6]
  percent Bodipy-positive cells: 11.8 ± 0.68%

## C[C@H](NC[C@H](O)CP(=O)(O)CC1CCCCC1)c1ccc(Cl)c(Cl)c1
[5]
  percent Bodipy-positive cells: 7.55 ± 2%

## CC(C)CCN1C(=O)N(CCN(C)C)C(=O)C12CCN(Cc1cn(C)c3ccccc13)CC2
[5]
  percent Bodipy-positive cells: 80.8 ± 0.97%

## CC(C)n1cnc2c(NCc3ccccc3)nc(NCCO)nc21 [N9-Isopropylolomoucine]
Library stock concentration: 15.3 mM
  percent Bodipy-positive cells: 23.8 ± 8.6%

## O=S(=O)(c1ccccc1)N(CC(F)(F)F)c1ccc(C(O)(C(F)(F)F)C(F)(F)F)cc1
[6]
  percent Bodipy-positive cells: 18 ± 2.6%
[4]
  percent Bodipy-positive cells: 19.6 ± 0.5%

## Cc1occc(=O)c1O
[5]
  percent Bodipy-positive cells: 6.22 ± 0.14%

## NC(CCCP(=O)(O)O)C(=O)O (centres undefined)
[5]
  percent Bodipy-positive cells: 33.5 ± 6.2%

## NC(CCCP(=O)(O)O)C(=O)O (stereo not drawn) [D(-)-2-Amino-5-phosphonopentanoic acid]
[5]
  percent Bodipy-positive cells: 26.6 ± 5.7%

## CNC(=O)c1cc(Oc2ccc(NC(=O)Nc3ccc(Cl)c(C(F)(F)F)c3)cc2)ccn1 [Sorafenib (Nexavar, BAY43-9006) (10 mM)]
[5]
  percent Bodipy-positive cells: 99.71 ± 0.41%

## CCCCN(CCCC)CCC(O)c1cc2c(Cl)cc(Cl)cc2c2cc(C(F)(F)F)ccc12 (centres undefined) [Halofantrine hydrochloride]
  percent Bodipy-positive cells: 35.5 ± 7.5%

## C#C[C@]1(O)CC[C@H]2[C@@H]3CCc4cc(O)ccc4[C@H]3CC[C@@]21C
[5]
  percent Bodipy-positive cells: 39.5 ± 7.1%

## C#C[C@]1(O)CC[C@H]2[C@@H]3CCc4cc(O)ccc4[C@H]3CC[C@@]21C [Ethinyl estradiol]
Library stock concentration: 6.7 mM
  percent Bodipy-positive cells: 39.7 ± 4.6%
[5]
  percent Bodipy-positive cells: 9.15 ± 2%

## C#C[C@]1(O)CC[C@H]2[C@@H]3CCc4cc(O)ccc4[C@H]3CC[C@@]21C [Ethinyl Estradiol]
[4]
  percent Bodipy-positive cells: 8.32 ± 1.4%
[5]
  percent Bodipy-positive cells: 50.6 ± 2%

## COc1cc(F)c(F)c(Nc2ccc(I)cc2F)c1NS(=O)(=O)C1(C[C@H](O)CO)CC1 [Refametinib (RDEA119, Bay 86-9766)]
[4]
  percent Bodipy-positive cells: 7.46 ± 1.1%
[5]
  percent Bodipy-positive cells: 26.4 ± 16%

## CCCCCN(CCCCC)C(=O)C(CCC(=O)O)NC(=O)c1ccc(Cl)c(Cl)c1 (centres undefined) [Lorglumide sodium]
[5]
  percent Bodipy-positive cells: 42 ± 3.5%

## CCCCCN(CCCCC)C(=O)C(CCC(=O)O)NC(=O)c1ccc(Cl)c(Cl)c1 (centres undefined) [Lorglumide]
[7]
  percent Bodipy-positive cells: 7.01 ± 2.3%

## CCCCCN(CCCCC)C(=O)C(CCC(=O)O)NC(=O)c1ccc(Cl)c(Cl)c1 (centres undefined) [Lorglumide sodium salt]
  percent Bodipy-positive cells: 6.49 ± 3.2%

## NC1CC1c1ccc(-c2cccc(O)c2)cc1 (centres undefined)
[4]
  percent Bodipy-positive cells: 48.5 ± 8.5%
[5]
  percent Bodipy-positive cells: 72.14 ± 0.68%

## Oc1ccc(-c2c(-c3ccccc3)nn3c(C(F)(F)F)cc(C(F)(F)F)nc23)cc1
[5]
  percent Bodipy-positive cells: 9.85 ± 8.7%
